# Measurements published in the supplement of paper PMC6411743.
# ± gives the standard deviation of the averaged measurements. The list shows a part of the results.
# Key:
# Experiment in all cases: NP40-soluble protein abundance relative to vehicle (solubility fold change) (ratio); higher = more soluble protein in presence of GTP
# RNF25 = target: T1, RNF25 (UniProt Q96BH1)
# T1 sequence (whole entry): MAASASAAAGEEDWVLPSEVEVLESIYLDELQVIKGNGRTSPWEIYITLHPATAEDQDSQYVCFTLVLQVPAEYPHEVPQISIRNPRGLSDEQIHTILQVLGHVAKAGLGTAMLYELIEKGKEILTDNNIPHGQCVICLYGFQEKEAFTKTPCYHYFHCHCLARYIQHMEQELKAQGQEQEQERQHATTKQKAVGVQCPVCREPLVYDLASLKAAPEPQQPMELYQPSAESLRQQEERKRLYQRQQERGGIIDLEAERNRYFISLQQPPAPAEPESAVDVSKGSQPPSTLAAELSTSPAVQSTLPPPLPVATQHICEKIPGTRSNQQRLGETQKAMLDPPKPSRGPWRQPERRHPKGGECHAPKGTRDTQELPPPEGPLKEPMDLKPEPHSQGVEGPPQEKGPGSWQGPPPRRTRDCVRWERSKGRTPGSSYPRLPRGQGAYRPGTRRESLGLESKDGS
# Summary of the method: (§1)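 Data come from three independent experiments in which Dounce-homogenised Jurkat crude lysate was treated at eight concentrations from 0.1 to 10 mM. Treatment ran 10 min at room temperature and then 3 min at 37 °C, after which 0.8% NP40 and benzonase were added for 60 min at 4 °C before ultracentrifugation. The supernatant underwent TMT labelling and LC-MS/MS, and vsn-normalised intensities were expressed as fold change against the detergent-processed vehicle in each replicate.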
# SYMPK = target: T2, SYMPK (UniProt Q92797)
# T2 sequence (whole entry): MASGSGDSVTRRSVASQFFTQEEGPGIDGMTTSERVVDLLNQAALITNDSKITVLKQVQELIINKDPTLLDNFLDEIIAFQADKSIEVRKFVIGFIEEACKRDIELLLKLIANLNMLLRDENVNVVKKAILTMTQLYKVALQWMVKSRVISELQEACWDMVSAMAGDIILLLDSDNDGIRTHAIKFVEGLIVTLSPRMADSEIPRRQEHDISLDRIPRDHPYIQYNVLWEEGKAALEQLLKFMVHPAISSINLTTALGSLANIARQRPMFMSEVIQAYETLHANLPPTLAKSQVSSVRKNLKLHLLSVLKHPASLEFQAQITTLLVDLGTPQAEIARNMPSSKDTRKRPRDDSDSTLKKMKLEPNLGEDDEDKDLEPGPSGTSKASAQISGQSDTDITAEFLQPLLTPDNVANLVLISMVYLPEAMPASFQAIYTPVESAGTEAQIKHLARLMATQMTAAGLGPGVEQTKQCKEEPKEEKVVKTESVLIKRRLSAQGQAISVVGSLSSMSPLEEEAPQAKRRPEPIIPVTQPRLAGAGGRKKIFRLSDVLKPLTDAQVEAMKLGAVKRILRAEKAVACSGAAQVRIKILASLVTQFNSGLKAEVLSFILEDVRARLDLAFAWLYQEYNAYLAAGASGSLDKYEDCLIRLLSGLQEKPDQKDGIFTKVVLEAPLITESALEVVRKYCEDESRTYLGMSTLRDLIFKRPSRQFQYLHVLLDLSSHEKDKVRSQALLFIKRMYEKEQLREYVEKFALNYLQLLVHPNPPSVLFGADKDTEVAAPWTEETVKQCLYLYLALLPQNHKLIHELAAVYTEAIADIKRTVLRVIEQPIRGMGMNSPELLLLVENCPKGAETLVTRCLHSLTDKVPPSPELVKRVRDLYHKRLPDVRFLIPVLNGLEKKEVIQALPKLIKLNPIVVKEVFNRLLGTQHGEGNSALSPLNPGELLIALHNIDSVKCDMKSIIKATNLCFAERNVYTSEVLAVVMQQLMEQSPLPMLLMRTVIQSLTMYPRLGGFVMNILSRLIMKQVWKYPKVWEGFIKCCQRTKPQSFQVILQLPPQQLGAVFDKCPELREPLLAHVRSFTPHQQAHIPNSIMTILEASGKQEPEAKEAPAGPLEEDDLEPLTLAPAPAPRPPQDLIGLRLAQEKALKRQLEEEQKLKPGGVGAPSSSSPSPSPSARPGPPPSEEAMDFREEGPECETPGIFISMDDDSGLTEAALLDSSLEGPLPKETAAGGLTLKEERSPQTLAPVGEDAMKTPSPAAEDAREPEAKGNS
# Summary of the method: as §1
# UBLCP1 = target: T3, UBLCP1 (UniProt Q8WVY7)
# T3 sequence (whole entry): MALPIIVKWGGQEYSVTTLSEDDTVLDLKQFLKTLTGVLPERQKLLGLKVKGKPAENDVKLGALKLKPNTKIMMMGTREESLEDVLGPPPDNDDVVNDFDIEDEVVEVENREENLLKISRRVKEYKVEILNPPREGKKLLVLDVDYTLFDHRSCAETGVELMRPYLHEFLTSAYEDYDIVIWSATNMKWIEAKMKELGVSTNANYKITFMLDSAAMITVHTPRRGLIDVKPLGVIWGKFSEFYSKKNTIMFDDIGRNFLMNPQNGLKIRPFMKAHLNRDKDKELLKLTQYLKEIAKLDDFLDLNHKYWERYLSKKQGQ
# Summary of the method: as §1
# [1] = target: T4, UniProt Q8WVX9 and related entries
# T4 sequence (whole entry): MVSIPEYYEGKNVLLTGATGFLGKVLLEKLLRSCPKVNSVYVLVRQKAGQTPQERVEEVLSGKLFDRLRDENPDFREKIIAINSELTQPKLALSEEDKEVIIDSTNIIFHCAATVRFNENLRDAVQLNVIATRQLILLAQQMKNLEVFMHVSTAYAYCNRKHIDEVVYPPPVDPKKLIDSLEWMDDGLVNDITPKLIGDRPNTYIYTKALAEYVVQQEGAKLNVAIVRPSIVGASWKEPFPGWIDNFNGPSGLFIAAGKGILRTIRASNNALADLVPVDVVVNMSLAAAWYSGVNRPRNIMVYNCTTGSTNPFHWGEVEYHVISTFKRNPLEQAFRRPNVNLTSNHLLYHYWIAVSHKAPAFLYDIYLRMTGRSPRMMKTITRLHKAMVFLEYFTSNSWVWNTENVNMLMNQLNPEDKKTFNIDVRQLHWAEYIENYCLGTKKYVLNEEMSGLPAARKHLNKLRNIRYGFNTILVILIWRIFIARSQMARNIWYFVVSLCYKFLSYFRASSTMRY
# Summary of the method: as §1
# UniProt Q8WWW0-2 = target: T5, UniProt Q8WWW0-2
# T5 sequence (whole entry): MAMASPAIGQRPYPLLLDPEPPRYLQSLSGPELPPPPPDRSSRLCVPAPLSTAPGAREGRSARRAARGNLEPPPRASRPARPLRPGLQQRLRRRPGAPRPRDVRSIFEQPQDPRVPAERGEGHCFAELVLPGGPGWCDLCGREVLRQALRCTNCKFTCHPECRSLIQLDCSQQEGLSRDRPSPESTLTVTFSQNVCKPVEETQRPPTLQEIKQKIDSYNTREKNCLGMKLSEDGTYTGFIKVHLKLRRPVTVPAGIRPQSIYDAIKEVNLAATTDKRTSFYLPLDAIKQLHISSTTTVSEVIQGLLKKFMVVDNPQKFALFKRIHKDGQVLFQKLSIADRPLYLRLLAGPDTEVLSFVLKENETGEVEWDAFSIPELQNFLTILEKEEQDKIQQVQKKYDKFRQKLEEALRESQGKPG
# Summary of the method: as §1
# [2] = target: T6, UniProt Q8WYQ5 and related entries
# T6 sequence (whole entry): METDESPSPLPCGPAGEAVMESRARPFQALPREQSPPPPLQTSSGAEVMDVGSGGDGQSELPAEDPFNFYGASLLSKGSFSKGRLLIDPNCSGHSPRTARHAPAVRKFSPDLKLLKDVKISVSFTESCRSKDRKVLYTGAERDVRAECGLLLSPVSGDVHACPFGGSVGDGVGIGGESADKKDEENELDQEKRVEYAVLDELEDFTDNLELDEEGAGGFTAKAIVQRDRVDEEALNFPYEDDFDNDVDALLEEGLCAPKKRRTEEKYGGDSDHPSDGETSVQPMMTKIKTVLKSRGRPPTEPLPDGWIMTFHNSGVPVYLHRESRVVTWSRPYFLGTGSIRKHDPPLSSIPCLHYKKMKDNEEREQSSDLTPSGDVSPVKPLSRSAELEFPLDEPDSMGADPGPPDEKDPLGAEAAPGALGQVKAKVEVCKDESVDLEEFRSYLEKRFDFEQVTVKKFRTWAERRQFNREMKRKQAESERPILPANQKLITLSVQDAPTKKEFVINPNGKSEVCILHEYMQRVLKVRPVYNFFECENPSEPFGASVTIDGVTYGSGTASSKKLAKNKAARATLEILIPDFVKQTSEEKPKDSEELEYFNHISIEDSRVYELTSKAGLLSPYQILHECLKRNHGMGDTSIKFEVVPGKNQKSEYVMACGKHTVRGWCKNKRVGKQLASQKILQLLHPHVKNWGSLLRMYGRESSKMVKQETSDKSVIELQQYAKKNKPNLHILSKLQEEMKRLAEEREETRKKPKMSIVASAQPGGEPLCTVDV
# Summary of the method: as §1
structure (smiles),measurement,setting,value
Nc1nc2c(ncn2[C@@H]2O[C@H](COP(=O)(O)OP(=O)(O)OP(=O)(O)O)[C@@H](O)[C@H]2O)c(=O)[nH]1 [guanosine triphosphate],NP40-soluble protein abundance,RNF25; concentration: 1mM,1.03 ± 0.045
same,NP40-soluble protein abundance,RNF25; concentration: 2mM,1.01 ± 0.037
same,NP40-soluble protein abundance,RNF25; concentration: 4mM,1.07 ± 0.11
same,NP40-soluble protein abundance,RNF25; concentration: 6mM,0.985 ± 0.073
same,NP40-soluble protein abundance,RNF25; concentration: 8mM,1.06 ± 0.037
same,NP40-soluble protein abundance,RNF25; concentration: 10mM,0.988 ± 0.014
same,NP40-soluble protein abundance,SYMPK; concentration: 0.1mM,1.04 ± 0.029
same,NP40-soluble protein abundance,SYMPK; concentration: 0.5mM,1.02 ± 0.037
same,NP40-soluble protein abundance,SYMPK; concentration: 1mM,1.04 ± 0.034
same,NP40-soluble protein abundance,SYMPK; concentration: 2mM,1.02 ± 0.03
same,NP40-soluble protein abundance,SYMPK; concentration: 4mM,1.04 ± 0.024
same,NP40-soluble protein abundance,SYMPK; concentration: 6mM,1.03 ± 0.026
same,NP40-soluble protein abundance,SYMPK; concentration: 8mM,1.04 ± 0.038
same,NP40-soluble protein abundance,SYMPK; concentration: 10mM,1.02 ± 0.019
same,NP40-soluble protein abundance,UBLCP1; concentration: 0.1mM,0.976 ± 0.018
same,NP40-soluble protein abundance,UBLCP1; concentration: 0.5mM,0.989 ± 0.022
same,NP40-soluble protein abundance,UBLCP1; concentration: 1mM,0.914 ± 0.015
same,NP40-soluble protein abundance,UBLCP1; concentration: 2mM,0.853 ± 0.02
same,NP40-soluble protein abundance,UBLCP1; concentration: 4mM,0.818 ± 0.044
same,NP40-soluble protein abundance,UBLCP1; concentration: 6mM,0.863 ± 0.026
same,NP40-soluble protein abundance,UBLCP1; concentration: 8mM,0.832 ± 0.065
same,NP40-soluble protein abundance,UBLCP1; concentration: 10mM,0.803 ± 0.063
same,NP40-soluble protein abundance,[1]; concentration: 0.1mM,1.11 ± 0.074
same,NP40-soluble protein abundance,[1]; concentration: 0.5mM,1.18 ± 0.14
same,NP40-soluble protein abundance,[1]; concentration: 1mM,0.998 ± 0.079
same,NP40-soluble protein abundance,[1]; concentration: 2mM,1.05 ± 0.18
same,NP40-soluble protein abundance,[1]; concentration: 4mM,1.05 ± 0.11
same,NP40-soluble protein abundance,[1]; concentration: 6mM,1.04 ± 0.14
same,NP40-soluble protein abundance,[1]; concentration: 8mM,1.01 ± 0.037
same,NP40-soluble protein abundance,[1]; concentration: 10mM,1 ± 0.1
same,NP40-soluble protein abundance,UniProt Q8WWW0-2; concentration: 0.1mM,0.947 ± 0.062
same,NP40-soluble protein abundance,UniProt Q8WWW0-2; concentration: 0.5mM,0.923 ± 0.046
same,NP40-soluble protein abundance,UniProt Q8WWW0-2; concentration: 1mM,0.932 ± 0.027
same,NP40-soluble protein abundance,UniProt Q8WWW0-2; concentration: 2mM,0.933 ± 0.065
same,NP40-soluble protein abundance,UniProt Q8WWW0-2; concentration: 4mM,0.909 ± 0.047
same,NP40-soluble protein abundance,UniProt Q8WWW0-2; concentration: 6mM,0.914 ± 0.062
same,NP40-soluble protein abundance,UniProt Q8WWW0-2; concentration: 8mM,0.892 ± 0.026
same,NP40-soluble protein abundance,UniProt Q8WWW0-2; concentration: 10mM,0.939 ± 0.037
same,NP40-soluble protein abundance,[2]; concentration: 0.1mM,1.13 ± 0.1
same,NP40-soluble protein abundance,[2]; concentration: 0.5mM,1.09 ± 0.05
same,NP40-soluble protein abundance,[2]; concentration: 1mM,1.16 ± 0.049
same,NP40-soluble protein abundance,[2]; concentration: 2mM,1.17 ± 0.045

# Part of the list above, as tab-separated lines:
structure (smiles)	measurement	setting	value
Nc1nc2c(ncn2[C@@H]2O[C@H](COP(=O)(O)OP(=O)(O)OP(=O)(O)O)[C@@H](O)[C@H]2O)c(=O)[nH]1 [guanosine triphosphate]	NP40-soluble protein abundance	SYMPK; concentration: 0.5mM	1.02 ± 0.037
same	NP40-soluble protein abundance	[1]; concentration: 1mM	0.998 ± 0.079
same	NP40-soluble protein abundance	UniProt Q8WWW0-2; concentration: 4mM	0.909 ± 0.047
